Laboratory results as given in paper PMC4675091.
These are yes or no findings as the source states them, for the method shown. Binding seen in cells or lysates may run through a third protein. Some entries that bind do so weakly or less than the wild type. For some of these results: Tags and fused reporters may be left off the sequences shown.

Protein sequences, listed by entry. Tags and fused reporters are not part of them.
UniProt P35612: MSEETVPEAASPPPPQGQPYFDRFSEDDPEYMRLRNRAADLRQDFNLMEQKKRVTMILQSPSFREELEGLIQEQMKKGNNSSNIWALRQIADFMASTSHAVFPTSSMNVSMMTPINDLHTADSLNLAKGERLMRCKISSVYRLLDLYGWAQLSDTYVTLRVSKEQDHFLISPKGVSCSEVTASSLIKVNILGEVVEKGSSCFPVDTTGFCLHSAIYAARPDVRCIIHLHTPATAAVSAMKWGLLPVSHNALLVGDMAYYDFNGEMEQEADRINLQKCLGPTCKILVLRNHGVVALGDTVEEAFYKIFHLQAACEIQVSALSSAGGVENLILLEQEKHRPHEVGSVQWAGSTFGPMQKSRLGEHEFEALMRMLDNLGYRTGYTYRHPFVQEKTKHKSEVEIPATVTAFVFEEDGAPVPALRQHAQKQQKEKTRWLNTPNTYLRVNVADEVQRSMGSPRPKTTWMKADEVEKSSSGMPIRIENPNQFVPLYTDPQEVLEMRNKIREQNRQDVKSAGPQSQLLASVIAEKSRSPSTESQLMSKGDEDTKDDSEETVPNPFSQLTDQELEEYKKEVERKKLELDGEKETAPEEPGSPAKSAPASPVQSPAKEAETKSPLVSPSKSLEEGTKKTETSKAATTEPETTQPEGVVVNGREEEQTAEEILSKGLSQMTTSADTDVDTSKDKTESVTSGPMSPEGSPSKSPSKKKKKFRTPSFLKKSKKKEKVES

T1: purified rat DARPP-32 (rat) (UniProt Q6J4I0)
T1 sequence: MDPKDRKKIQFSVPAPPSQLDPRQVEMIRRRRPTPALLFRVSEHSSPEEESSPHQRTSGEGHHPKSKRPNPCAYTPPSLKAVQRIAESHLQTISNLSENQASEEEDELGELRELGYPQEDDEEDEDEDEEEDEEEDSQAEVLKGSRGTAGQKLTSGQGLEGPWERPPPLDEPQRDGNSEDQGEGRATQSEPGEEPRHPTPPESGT

T2: DARPP-32-GFP (BAC transgenic mice) (mouse) (UniProt Q60829)
T2 sequence: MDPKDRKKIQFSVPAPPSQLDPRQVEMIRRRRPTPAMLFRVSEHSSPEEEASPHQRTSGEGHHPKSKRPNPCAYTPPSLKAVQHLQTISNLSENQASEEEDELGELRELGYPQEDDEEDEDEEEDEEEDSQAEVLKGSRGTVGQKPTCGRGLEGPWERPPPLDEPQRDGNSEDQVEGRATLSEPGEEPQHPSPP

B1: purified recombinant DARPP-32 phosphorylated by CK2 (protein, UniProt Q6J4I0 1-205)
chain: T1 sequence
modifications: phosphoserine at Ser97 (by CK2)
B2: β-adducin (rat striatal lysate) (protein, UniProt Q05764 1-725)
chain: MSEDTVPEAASPPPSQGQHYFDRFSEDDPEYLRLRNRAADLRQDFNLMEQKKRVTMILQSPSFREELEGLIQEQMKKGNNSSNIWALRQIADFMASTSHAVFPASSMNFSMMTPINDLHTADSLNLAKGERLMRCKISSVYRLLDLYGWAQLSDTYVTLRVSKEQDHFLISPKGVSCSEVTASSLIKVNILGEVVEKGSSCFPVDTTGFSLHSAIYAARPDVRCAIHLHTPATAAVSAMKCGLLPVSHNALLVGDMAYYDFNGEMEQEADRINLQKCLGPTCKILVLRNHGMVALGDTVEEAFYKVFHLQAACEVQVSALSSAGGTENLILLEQEKHRPHEVGSVQWAGSTFGPMQKSRLGEHEFEALMRMLDNLGYRTGYTYRHPFVQEKTKHKSEVEIPATVTAFVFEEDGVPVPALRQHAQKQQKEKTRWLNTPNTYLRVNVADEVQRNMGSPRPKTTWMKADEVEKSSSGMPIRIENPNQFVPLYTDPQEVLDMRNKIREQNRQDIKSAGPQSQLLASVIAEKSRSPSTESQLASKGDADTKDELEETVPNPFSQLTDQELEEYKKEVERKKLEQEQEGEKDAATEEPGSPVKSTPASPVQSPTRAGTKSPAVSPSKASEDAKKTEVSEANTEPEPEKPEGVVVNGKEEEPCVEEVLSKGPGQMTTNADTDGDSYKDKTESVTSGPLSPEGSPSKSPSKKKKKFRTPSFLKKSKKKEKVES
B3: β-adducin (mouse striatal lysate) (protein, UniProt Q9QYB8 1-725)
chain: MSEDTVPEAASPPPSQGQHYFDRFSEDDPEYLRLRNRAADLRQDFNLMEQKKRVTMILQSPSFREELEGLIQEQMKKGNNSSNIWALRQIADFMASTSHAVFPASSMNFSMMTPINDLHTADSLNLAKGERLMRCKISSVYRLLDLYGWAQLSDTYVTLRVSKEQDHFLISPKGVSCSEVTASSLIKVNILGEVVEKGSSCFPVDTTGFSLHSAIYAARPDVRCAIHLHTPATAAVSAMKCGLLPVSHNALLVGDMAYYDFNGEMEQEADRINLQKCLGPTCKILVLRNHGMVALGDTVEEAFYKVFHLQAACEVQVSALSSAGGTENLILLEQEKHRPHEVGSVQWAGSTFGPMQKSRLGEHEFEALMRMLDNLGYRTGYTYRHPFVQEKTKHKSEVEIPATVTAFVFEEDGVPVPALRQHAQKQQKEKTRWLNTPNTYLRVNVADEVQRNMGSPRPKTTWMKADEVEKSSSGMPIRIENPNQFVPLYTDPQEVLDMRNKIREQNRQDIKSAGPQSQLLASVIAEKSRSPSTESQLMSKGDADTKDESEETVPNPFSQLTDQELEEYKKEVERKKLEQEQEGEKDIATEKPGSPVKSTPASPVQSPSKAGTKSPAVSPSKTSEDTKKTEVSEANTEPEPVKPEGLVVNGKEEEPSVEEALSKGLGQMTTNADTDGDSYKDKTESVTSGPLSPEGSPSKSPSKKKKKFRTPSFLKKSKKKEKVES
B4: purified rat DARPP-32 (protein, UniProt Q6J4I0 1-205)
chain: T1 sequence

Tests used:
[1] = target: myc-tagged full-length β-adducin (human) (UniProt P35612); test: pull-down; beads coated with myc-β-adducin (from COS-7 lysate) incubated 2 h at 4 °C with purified recombinant DARPP-32 phosphorylated or not by CK2; immunoblot for DARPP-32; only the binder purified
[2] = target: T1, purified rat DARPP-32 (rat); test: pull-down; Sepharose coupled to purified recombinant DARPP-32 or casein, rat striatal lysate; eluted with 150 mM NaCl; immunoblot for β-adducin; only the target purified
[3] = target: T2, DARPP-32-GFP (BAC transgenic mice) (mouse); test: co-IP; striatal lysates (RIPA buffer) of DARPP-32-GFP transgenic mice and WT littermates; GFP-trap resin, 2 h at 4 °C; immunoblot for β-adducin

Binder	binding [1]	further results
B1	binds	
B2		binding [2]: binds
B3		binding [3]: binds
B4	binds	
